Reference: article PMC4818453
No constants are given. Whether binding was seen depends on the method and setting. Binding seen in cells or lysates may run through a third protein. Binding can be weak; no strength is given. Where a sequence is shown, tags or fusion partners need not be part of it.

Target: T1, full-length GST-CASK (rat) (UniProt Q62915)
T1 sequence: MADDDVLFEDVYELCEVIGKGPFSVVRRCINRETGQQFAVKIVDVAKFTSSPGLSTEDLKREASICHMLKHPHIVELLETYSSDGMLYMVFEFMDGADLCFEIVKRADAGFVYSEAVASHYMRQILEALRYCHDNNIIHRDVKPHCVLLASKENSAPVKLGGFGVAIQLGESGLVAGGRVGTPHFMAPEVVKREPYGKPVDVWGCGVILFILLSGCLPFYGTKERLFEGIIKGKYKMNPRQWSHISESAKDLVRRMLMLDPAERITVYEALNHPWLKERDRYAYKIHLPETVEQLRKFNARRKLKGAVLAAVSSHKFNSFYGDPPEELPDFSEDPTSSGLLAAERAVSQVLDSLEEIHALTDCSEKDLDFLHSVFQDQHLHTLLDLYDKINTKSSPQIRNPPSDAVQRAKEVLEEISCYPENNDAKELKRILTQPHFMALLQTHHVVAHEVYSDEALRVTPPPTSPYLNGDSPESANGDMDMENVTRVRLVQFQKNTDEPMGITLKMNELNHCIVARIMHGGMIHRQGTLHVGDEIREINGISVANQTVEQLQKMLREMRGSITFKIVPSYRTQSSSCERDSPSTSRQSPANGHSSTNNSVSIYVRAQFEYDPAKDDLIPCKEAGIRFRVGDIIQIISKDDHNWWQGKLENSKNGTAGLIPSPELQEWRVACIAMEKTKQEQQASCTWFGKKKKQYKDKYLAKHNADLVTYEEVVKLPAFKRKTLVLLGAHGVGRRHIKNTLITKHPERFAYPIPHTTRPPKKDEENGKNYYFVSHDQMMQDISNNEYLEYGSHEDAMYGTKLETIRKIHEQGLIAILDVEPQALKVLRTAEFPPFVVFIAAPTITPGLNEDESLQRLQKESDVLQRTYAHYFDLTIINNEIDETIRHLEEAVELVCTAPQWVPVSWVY
Test: pull-down; full-length GST-CASK or GST immobilised on glutathione resin; rat brain homogenate; bound proteins detected by immunoblot; only the target purified

binding: binds
Substance: isocitrate dehydrogenase (IDH)
